Test results reported in publication PMC5998130.
Results are given in words; binding and its absence hold for the method and conditions named. Binding seen in cells or lysates may run through a third protein. A yes stands for co-enrichment or nearness to the bait. Other partners may have been found. Values belong to the binder of their own block, whether it stands above or below them.

Sequences of proteins named here, by UniProt entry; tags and fusion partners are left off.
UniProt Q92793: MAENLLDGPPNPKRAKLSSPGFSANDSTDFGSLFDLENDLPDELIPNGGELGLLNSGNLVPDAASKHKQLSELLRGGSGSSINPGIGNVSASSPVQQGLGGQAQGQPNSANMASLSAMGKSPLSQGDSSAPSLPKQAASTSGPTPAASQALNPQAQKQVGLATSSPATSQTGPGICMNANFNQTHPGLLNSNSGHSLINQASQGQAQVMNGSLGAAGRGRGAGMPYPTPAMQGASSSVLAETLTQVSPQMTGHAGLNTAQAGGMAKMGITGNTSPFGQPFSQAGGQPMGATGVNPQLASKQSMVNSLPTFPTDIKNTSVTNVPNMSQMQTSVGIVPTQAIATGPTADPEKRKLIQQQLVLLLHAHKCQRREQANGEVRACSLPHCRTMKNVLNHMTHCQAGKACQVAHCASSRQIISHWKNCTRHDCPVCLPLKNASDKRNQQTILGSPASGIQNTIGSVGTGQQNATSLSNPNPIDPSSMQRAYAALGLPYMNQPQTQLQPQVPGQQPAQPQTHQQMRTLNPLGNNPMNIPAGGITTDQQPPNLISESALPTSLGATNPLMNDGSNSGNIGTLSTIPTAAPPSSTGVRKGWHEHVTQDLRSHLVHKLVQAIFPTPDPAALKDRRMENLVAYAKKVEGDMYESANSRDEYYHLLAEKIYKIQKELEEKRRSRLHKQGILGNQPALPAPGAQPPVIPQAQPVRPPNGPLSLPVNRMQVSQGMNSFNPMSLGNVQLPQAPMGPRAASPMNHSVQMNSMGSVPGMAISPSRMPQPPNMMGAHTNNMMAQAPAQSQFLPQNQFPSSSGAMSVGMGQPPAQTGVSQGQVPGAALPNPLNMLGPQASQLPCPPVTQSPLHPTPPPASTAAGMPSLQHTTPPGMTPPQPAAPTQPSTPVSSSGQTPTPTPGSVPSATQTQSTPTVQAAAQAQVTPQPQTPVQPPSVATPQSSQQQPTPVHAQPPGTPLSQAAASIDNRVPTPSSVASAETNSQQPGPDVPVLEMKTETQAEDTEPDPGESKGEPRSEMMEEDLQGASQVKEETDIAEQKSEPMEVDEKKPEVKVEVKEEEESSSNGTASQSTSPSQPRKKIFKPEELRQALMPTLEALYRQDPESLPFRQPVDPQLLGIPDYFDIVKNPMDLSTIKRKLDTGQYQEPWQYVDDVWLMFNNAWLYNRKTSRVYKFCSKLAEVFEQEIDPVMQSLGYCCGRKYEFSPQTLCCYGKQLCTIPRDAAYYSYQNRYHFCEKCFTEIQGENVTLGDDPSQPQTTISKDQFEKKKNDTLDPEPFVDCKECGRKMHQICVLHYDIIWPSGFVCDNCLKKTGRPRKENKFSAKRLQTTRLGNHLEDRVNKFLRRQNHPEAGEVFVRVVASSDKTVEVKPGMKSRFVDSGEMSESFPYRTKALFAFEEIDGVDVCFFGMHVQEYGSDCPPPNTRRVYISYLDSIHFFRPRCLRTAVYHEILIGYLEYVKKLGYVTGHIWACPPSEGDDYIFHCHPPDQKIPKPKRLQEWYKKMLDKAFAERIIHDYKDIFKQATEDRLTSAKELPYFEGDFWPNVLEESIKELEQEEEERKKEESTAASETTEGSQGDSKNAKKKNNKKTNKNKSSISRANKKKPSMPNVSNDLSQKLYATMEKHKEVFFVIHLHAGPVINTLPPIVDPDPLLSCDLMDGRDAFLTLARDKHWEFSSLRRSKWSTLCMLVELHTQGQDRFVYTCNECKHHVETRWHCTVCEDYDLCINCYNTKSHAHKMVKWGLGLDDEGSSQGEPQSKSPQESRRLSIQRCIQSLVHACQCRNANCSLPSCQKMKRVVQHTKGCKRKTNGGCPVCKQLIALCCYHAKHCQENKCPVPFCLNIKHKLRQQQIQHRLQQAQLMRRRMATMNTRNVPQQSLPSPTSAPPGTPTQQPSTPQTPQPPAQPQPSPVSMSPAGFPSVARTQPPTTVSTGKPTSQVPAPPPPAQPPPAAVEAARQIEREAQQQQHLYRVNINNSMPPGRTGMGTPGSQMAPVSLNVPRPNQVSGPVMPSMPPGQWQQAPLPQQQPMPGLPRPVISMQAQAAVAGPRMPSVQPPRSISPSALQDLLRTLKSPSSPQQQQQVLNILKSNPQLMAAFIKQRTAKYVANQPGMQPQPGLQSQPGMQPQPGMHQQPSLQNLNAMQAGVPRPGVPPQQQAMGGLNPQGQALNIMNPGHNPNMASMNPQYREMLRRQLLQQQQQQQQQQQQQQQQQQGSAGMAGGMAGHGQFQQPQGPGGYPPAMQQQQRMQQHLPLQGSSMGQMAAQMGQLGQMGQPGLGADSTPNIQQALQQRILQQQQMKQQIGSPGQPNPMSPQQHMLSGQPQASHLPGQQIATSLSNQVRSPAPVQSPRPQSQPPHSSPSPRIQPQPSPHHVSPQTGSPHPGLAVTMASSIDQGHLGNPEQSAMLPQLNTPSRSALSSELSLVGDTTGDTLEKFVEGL

What was measured:
[1] = biological target: T1, Estrogen Receptor alpha (ERα) (human (endogenous in MCF7, human PDX tumours and human breast tumours)), P03372; test: affinity purification with mass spectrometry; qPLEX-RIME: endogenous ERα precipitated (sc-543, Protein A Dynabeads) from asynchronous MCF7 cells, single crosslinking with 1% FA, sonicated nuclei; TMT-10plex, MultiNotch MS3; five replicates against matched IgG controls; conditions: remark: other sources report otherwise
[2] = biological target: Estrogen Receptor alpha (ERα) (human (endogenous in MCF7, human PDX tumours and human breast tumours)) (UniProt P03372); test: as above
[3] = biological target: Estrogen Receptor alpha (ERα) (human (endogenous in MCF7, human PDX tumours and human breast tumours)) (UniProt P03372); test: affinity purification with mass spectrometry; qPLEX-RIME: endogenous ERα precipitated from MCF7 cells, double crosslinking (2 mM DSG then 1% FA), compared with single crosslinking
[4] = substrate: CBP (CREB-binding protein) (human (endogenous in MCF7, human PDX tumours and human breast tumours)) (UniProt Q92793); test: affinity purification with mass spectrometry; qPLEX-RIME: endogenous CBP precipitated (Diagenode C15410224) from MCF7 cells, double crosslinking (DSG, FA), against IgG controls
[5] = biological target: Estrogen Receptor alpha (ERα) (human (endogenous in MCF7, human PDX tumours and human breast tumours)) (UniProt P03372); test: affinity purification with mass spectrometry; qPLEX-RIME: endogenous ERα precipitated from MCF7 cells treated with vehicle (ethanol, 24 h) or 100 nM OHT for 2 h, 6 h and 24 h, double crosslinking, 3 x 10plex, against IgG controls; values corrected for the amount of ERα
[6] = biological target: T1, Estrogen Receptor alpha (ERα) (human …); test: affinity purification with mass spectrometry; qPLEX-RIME: endogenous ERα precipitated from MCF7 cells, double crosslinking (2 mM DSG then 1% FA), compared with single crosslinking; conditions: remark: other sources report otherwise
[7] = biological target: T1, Estrogen Receptor alpha (ERα) (human …); test: affinity purification with mass spectrometry; qPLEX-RIME: endogenous ERα precipitated from cryosections of five human breast cancer tumours (ERα positive, PR positive, Her2 negative), double crosslinking, against matched IgG pull-downs; conditions: remark: other sources report otherwise
[8] = biological target: Estrogen Receptor alpha (ERα) (human (endogenous in MCF7, human PDX tumours and human breast tumours)) (UniProt P03372); test: affinity purification with mass spectrometry; qPLEX-RIME: endogenous ERα precipitated from cryosections (30 µm) of three ER positive human PDX tumours (HCI-003, HCI-005, HCI-006), double crosslinking, against matched IgG pull-downs

binding [1]: binds
B1: FOXK1, P85037 1-733 (protein)
chain: MAEVGEDSGARALLALRSAPCSPVLCAAAAAAAFPAAAPPPAPAQPQPPPGPPPPPPPPLPPGAIAGAGSSGGSSGVSGDSAVAGAAPALVAAAAASVRQSPGPALARLEGREFEFLMRQPSVTIGRNSSQGSVDLSMGLSSFISRRHLQLSFQEPHFYLRCLGKNGVFVDGAFQRRGAPALQLPKQCTFRFPSTAIKIQFTSLYHKEEAPASPLRPLYPQISPLKIHIPEPDLRSMVSPVPSPTGTISVPNSCPASPRGAGSSSYRFVQNVTSDLQLAAEFAAKAASEQQADTSGGDSPKDESKPPFSYAQLIVQAISSAQDRQLTLSGIYAHITKHYPYYRTADKGWQNSIRHNLSLNRYFIKVPRSQEEPGKGSFWRIDPASEAKLVEQAFRKRRQRGVSCFRTPFGPLSSRSAPASPTHPGLMSPRSGGLQTPECLSREGSPIPHDPEFGSKLASVPEYRYSQSAPGSPVSAQPVIMAVPPRPSSLVAKPVAYMPASIVTSQQPAGHAIHVVQQAPTVTMVRVVTTSANSANGYILTSQGAAGGSHDAAGAAVLDLGSEARGLEEKPTIAFATIPAAGGVIQTVASQMAPGVPGHTVTILQPATPVTLGQHHLPVRAVTQNGKHAVPTNSLAGNAYALTSPLQLLATQASSSAPVVVTRVCEVGPKEPAAAVAATATTTPATATTASASASSTGEPEVKRSRVEEPSGAVTTPAGVIAAAGPQGPGTGE

binding [2]: binds
B2: TRIM24 (protein, UniProt O15164 1-1050)
chain: MEVAVEKAVAAAAAASAAASGGPSAAPSGENEAESRQGPDSERGGEAARLNLLDTCAVCHQNIQSRAPKLLPCLHSFCQRCLPAPQRYLMLPAPMLGSAETPPPVPAPGSPVSGSSPFATQVGVIRCPVCSQECAERHIIDNFFVKDTTEVPSSTVEKSNQVCTSCEDNAEANGFCVECVEWLCKTCIRAHQRVKFTKDHTVRQKEEVSPEAVGVTSQRPVFCPFHKKEQLKLYCETCDKLTCRDCQLLEHKEHRYQFIEEAFQNQKVIIDTLITKLMEKTKYIKFTGNQIQNRIIEVNQNQKQVEQDIKVAIFTLMVEINKKGKALLHQLESLAKDHRMKLMQQQQEVAGLSKQLEHVMHFSKWAVSSGSSTALLYSKRLITYRLRHLLRARCDASPVTNNTIQFHCDPSFWAQNIINLGSLVIEDKESQPQMPKQNPVVEQNSQPPSGLSSNQLSKFPTQISLAQLRLQHMQQQVMAQRQQVQRRPAPVGLPNPRMQGPIQQPSISHQQPPPRLINFQNHSPKPNGPVLPPHPQQLRYPPNQNIPRQAIKPNPLQMAFLAQQAIKQWQISSGQGTPSTTNSTSSTPSSPTITSAAGYDGKAFGSPMIDLSSPVGGSYNLPSLPDIDCSSTIMLDNIVRKDTNIDHGQPRPPSNRTVQSPNSSVPSPGLAGPVTMTSVHPPIRSPSASSVGSRGSSGSSSKPAGADSTHKVPVVMLEPIRIKQENSGPPENYDFPVVIVKQESDEESRPQNANYPRSILTSLLLNSSQSSTSEETVLRSDAPDSTGDQPGLHQDNSSNGKSEWLDPSQKSPLHVGETRKEDDPNEDWCAVCQNGGELLCCEKCPKVFHLSCHVPTLTNFPSGEWICTFCRDLSKPEVEYDCDAPSHNSEKKKTEGLVKLTPIDKRKCERLLLFLYCHEMSLAFQDPVPLTVPDYYKIIKNPMDLSTIKKRLQEDYSMYSKPEDFVADFRLIFQNCAEFNEPDSEVANAGIKLENYFEELLKNLYPEKRFPKPEFRNESEDNKFSDDSDDDFVQPRKKRLKSIEERQLLK

binding [3]: binds
B3: NR2F2 (protein, UniProt P24468 1-414)
chain: MAMVVSTWRDPQDEVPGSQGSQASQAPPVPGPPPGAPHTPQTPGQGGPASTPAQTAAGGQGGPGGPGSDKQQQQQHIECVVCGDKSSGKHYGQFTCEGCKSFFKRSVRRNLSYTCRANRNCPIDQHHRNQCQYCRLKKCLKVGMRREAVQRGRMPPTQPTHGQFALTNGDPLNCHSYLSGYISLLLRAEPYPTSRFGSQCMQPNNIMGIENICELAARMLFSAVEWARNIPFFPDLQITDQVALLRLTWSELFVLNAAQCSMPLHVAPLLAAAGLHASPMSADRVVAFMDHIRIFQEQVEKLKALHVDSAEYSCLKAIVLFTSDACGLSDVAHVESLQEKSQCALEEYVRSQYPNQPTRFGKLLLRLPSLRTVSSSVIEQLFFVRLVGKTPIETLIRDMLLSGSSFNWPYMAIQ

binding [4]: binds
B4: transcription factor JunB (protein, UniProt P17275 1-347)
chain: MCTKMEQPFYHDDSYTATGYGRAPGGLSLHDYKLLKPSLAVNLADPYRSLKAPGARGPGPEGGGGGSYFSGQGSDTGASLKLASSELERLIVPNSNGVITTTPTPPGQYFYPRGGGSGGGAGGAGGGVTEEQEGFADGFVKALDDLHKMNHVTPPNVSLGATGGPPAGPGGVYAGPEPPPVYTNLSSYSPASASSGGAGAAVGTGSSYPTTTISYLPHAPPFAGGHPAQLGLGRGASTFKEEPQTVPEARSRDATPPVSPINMEDQERIKVERKRLRNRLAATKCRKRKLERIARLEDKVKTLKAENAGLSSTAGLLREQVAQLKQKVMTHVSNGCQLLLGVKGHAF

binding [2]: binds
binding [5]: binds
B5: NRIP1 (RIP140) (protein, UniProt P48552 1-1158)
chain: MTHGEELGSDVHQDSIVLTYLEGLLMHQAAGGSGTAVDKKSAGHNEEDQNFNISGSAFPTCQSNGPVLNTHTYQGSGMLHLKKARLLQSSEDWNAAKRKRLSDSIMNLNVKKEALLAGMVDSVPKGKQDSTLLASLLQSFSSRLQTVALSQQIRQSLKEQGYALSHDSLKVEKDLRCYGVASSHLKTLLKKSKVKDQKPDTNLPDVTKNLIRDRFAESPHHVGQSGTKVMSEPLSCAARLQAVASMVEKRASPATSPKPSVACSQLALLLSSEAHLQQYSREHALKTQNANQAASERLAAMARLQENGQKDVGSYQLPKGMSSHLNGQARTSSSKLMASKSSATVFQNPMGIIPSSPKNAGYKNSLERNNIKQAANNSLLLHLLKSQTIPKPMNGHSHSERGSIFEESSTPTTIDEYSDNNPSFTDDSSGDESSYSNCVPIDLSCKHRTEKSESDQPVSLDNFTQSLLNTWDPKVPDVDIKEDQDTSKNSKLNSHQKVTLLQLLLGHKNEENVEKNTSPQGVHNDVSKFNTQNYARTSVIESPSTNRTTPVSTPPLLTSSKAGSPINLSQHSLVIKWNSPPYVCSTQSEKLTNTASNHSMDLTKSKDPPGEKPAQNEGAQNSATFSASKLLQNLAQCGMQSSMSVEEQRPSKQLLTGNTDKPIGMIDRLNSPLLSNKTNAVEENKAFSSQPTGPEPGLSGSEIENLLERRTVLQLLLGNPNKGKSEKKEKTPLRDESTQEHSERALSEQILMVKIKSEPCDDLQIPNTNVHLSHDAKSAPFLGMAPAVQRSAPALPVSEDFKSEPVSPQDFSFSKNGLLSRLLRQNQDSYLADDSDRSHRNNEMALLESKNLCMVPKKRKLYTEPLENPFKKMKNNIVDAANNHSAPEVLYGSLLNQEELKFSRNDLEFKYPAGHGSASESEHRSWARESKSFNVLKQLLLSENCVRDLSPHRSNSVADSKKKGHKNNVTNSKPEFSISSLNGLMYSSTQPSSCMDNRTFSYPGVVKTPVSPTFPEHLGCAGSRPESGLLNGCSMPSEKGPIKWVITDAEKNEYEKDSPRLTKTNPILYYMLQKGGNSVTSRETQDKDIWREASSAESVSQVTAKEELLPTAETKASFFNLRSPYNSHMGNNASRPHSANGEVYGLLGSVLTIKKESE

binding [6]: binds
binding [7]: binds
binding [1]: binds
B6: FOXA1, P55317 1-472 (protein)
chain: MLGTVKMEGHETSDWNSYYADTQEAYSSVPVSNMNSGLGSMNSMNTYMTMNTMTTSGNMTPASFNMSYANPGLGAGLSPGAVAGMPGGSAGAMNSMTAAGVTAMGTALSPSGMGAMGAQQAASMNGLGPYAAAMNPCMSPMAYAPSNLGRSRAGGGGDAKTFKRSYPHAKPPYSYISLITMAIQQAPSKMLTLSEIYQWIMDLFPYYRQNQQRWQNSIRHSLSFNDCFVKVARSPDKPGKGSYWTLHPDSGNMFENGCYLRRQKRFKCEKQPGAGGGGGSGSGGSGAKGGPESRKDPSGASNPSADSPLHRGVHGKTGQLEGAPAPGPAASPQTLDHSGATATGGASELKTPASSTAPPISSGPGALASVPASHPAHGLAPHESQLHLKGDPHYSFNHPFSINNLMSSSEQQHKLDFKAYEQALQYSPYGSTLPASLPLGSASVTTRSPIEPSALEPAYYQGVYSRPVLNTS

binding [8]: binds
B7: NCOA5 (CIA) (protein, UniProt Q9HCD5 1-579)
chain: MNTAPSRPSPTRRDPYGFGDSRDSRRDRSPIRGSPRREPRDGRNGRDARDSRDIRDPRDLRDHRHSRDLRDHRDSRSVRDVRDVRDLRDFRDLRDSRDFRDQRDPMYDRYRDMRDSRDPMYRREGSYDRYLRMDDYCRRKDDSYFDRYRDSFDGRGPPGPESQSRAKERLKREERRREELYRQYFEEIQRRFDAERPVDCSVIVVNKQTKDYAESVGRKVRDLGMVVDLIFLNTEVSLSQALEDVSRGGSPFAIVITQQHQIHRSCTVNIMFGTPQEHRNMPQADAMVLVARNYERYKNECREKEREEIARQAAKMADEAILQERERGGPEEGVRGGHPPAIQSLINLLADNRYLTAEETDKIINYLRERKERLMRSSTDSLPGPISRQPLGATSGASLKTQPSSQPLQSGQVLPSATPTPSAPPTSQQELQAKILSLFNSGTVTANSSSASPSVAAGNTPNQNFSTAANSQPQQRSQASGNQPPSILGQGGSAQNMGPRPGAPSQGLFGQPSSRLAPASNMTSQRPVSSTGINFDNPSVQKALDTLIQSGPALSHLVSQTTAQMGQPQAPMGSYQRHY
